Values joined by “and” are separate entries in the source; they are usually repeats but may differ in a detail not shown here. Equal entries are not always repeated. Out of some 300,000 compounds screened, about 5,400 (1.8%) were called active. This list was built around the results that the source calls inconclusive (neither active nor inactive); the mix of calls is not that of the screen. Calls follow the shape of the full dose curve; tested in HEK293 cells. A potency beside an inconclusive call is a rough fit, not a confirmed value.
Test: qHTS for inhibitors of binding or entry into cells for Marburg Virus
Conditions: Marburg virus pseudotyped entry inhibition, cell reporter; activity change, negative = inhibition: at 37.8 µM (top of the series) unless noted
For `COc1cc2[nH]c(=S)n(Cc3ccc(C)cc3)c(=O)c2cc1OC`, the Potency was inconclusive: 6.31 µM [activator, single point]. For `COc1cccc(C(CC2=CCCCC2)NC(=O)C(F)(F)F)c1` (stereo not given), the Potency was inconclusive: 0.0084 µM [activator, full curve, poor fit]. With `COc1ccc2c(c1)CCc1c(C(=O)Nc3ccccc3C(F)(F)F)noc1-2` the Potency was inconclusive: 8.91 µM [activator, partial curve, poor fit]. With `O=C(COC(=O)c1ccccc1O)Nc1ccc(OC(F)F)cc1` the “activity change, negative = inhibition” value was inactive: 2.17%. In the case of `Cc1ccc(C)c(C(C)NC(=O)C2CCCO2)c1` (stereo not given), the “activity change, negative = inhibition” value is reported as inactive: -16.9% [at 46.1 µM]. In the case of `COc1ccc(CNC(=O)COC(=O)[C@@H]2CCCN2C(=O)c2cccs2)cc1`, the “activity change, negative = inhibition” value is reported as inactive: -2.03% [at 46.1 µM]. With `CCCn1c(=O)sc2cc(NC(=O)c3ccccc3OCC)ccc21` the Potency was inconclusive: 6.31 µM [activator, full curve, poor fit]. With `COC(=O)[C@H](Cc1ccccc1)NC(=O)NCCc1ccc(F)cc1` the Potency was inconclusive: 7.08 µM [inhibitor, partial curve, poor fit]. With `CCCC(=O)N(Cc1cc(=O)[nH]c2ccccc12)c1ccc(C)cc1` the Potency was inconclusive: 4.47 µM [inhibitor, full curve, poor fit]. In the case of `COC(=O)c1c(-c2ccccc2)csc1NC1=NS(=O)(=O)c2ccccc21`, the Potency is reported as inconclusive: 1.16 µM [activator, single point]. For `O=C(CSc1nc2ccccc2o1)N1CCN(C(=O)c2ccco2)CC1`, the Potency was inconclusive: 1.26 µM [activator, single point]. With `COCCCN=C1NN=C(c2cc(C)n(-c3ccccc3F)c2C)CS1` the Potency was active: 2.06 µM. With `CC(=O)N/C(=C/c1ccc2c(c1)OCO2)C(=O)O` the Potency was inconclusive: 3.55 µM [activator, partial curve, poor fit]. In the case of `Cc1cccc(/C(N)=N/OC(=O)CCCc2ccccc2)c1`, the “activity change, negative = inhibition” value is reported as inactive: 20.9% [at 46.1 µM]. With `Cc1ccn2c(=O)nc(SCC(=O)N3N=C(c4cccs4)CC3c3ccc(F)cc3)nc2c1` (stereo not given) the Potency was inconclusive: 35.5 µM [inhibitor, single point]. In the case of `O=c1[nH]c(Nc2nc3ccccc3o2)nc2c1CCCC2`, the Potency is reported as active: 6.51 µM. In the case of `O=C(Cc1ccccc1)Nc1ccc(CN2CCOCC2)cc1`, the “activity change, negative = inhibition” value is reported as inactive: 8.13%. For `COc1ccccc1OCCn1cc(/C=C(\C#N)C(=O)NCc2ccco2)c2ccccc21`, the “activity change, negative = inhibition” value was inactive: 3.32%. For `CCOC(=O)C1=C(CN2CCN(CC)CC2)NC(=O)NC1c1ccc(Cl)cc1` (stereo not given), the Potency was inconclusive: 25.1 µM [inhibitor, single point]. For `O=C(COc1ccc(Br)cc1Cl)NC(=O)Nc1ccc2c(c1)OCCO2`, the “activity change, negative = inhibition” value was inactive: 18.6% [at 46.1 µM]. For `COc1cccc(CN(C)CC(O)COC(c2ccccc2)c2ccccc2C)c1` (stereo not given), the Potency was inconclusive: 11.2 µM [inhibitor, partial curve, poor fit]. With `CN1CCN(c2ccc([N+](=O)[O-])cc2C(=O)N2CCCCC2)CC1` the Potency was inconclusive: 1.26 µM [activator, single point]. In the case of `COc1ccc(CCc2cc(OC)c(OC)c(OC)c2)cc1`, the Potency is reported as inconclusive: 0.126 µM [inhibitor, full curve, poor fit]. With `O=C(/C=C\c1ccco1)Nc1nc(-c2ccc3ccccc3c2)cs1` the Potency was inconclusive: 6.31 µM [inhibitor, partial curve, poor fit]. For `CC(C)Oc1ccc(CNC(=O)Cn2c(=O)oc3ccccc32)cc1`, the “activity change, negative = inhibition” value was inactive: 22.7% [at 46.1 µM]. With `COc1cc(Nc2c3ccccc3nc3ccccc23)cc(OC)c1OC` the Potency was active: 2.82 µM. In the case of `O=C(CCN1CCN(c2ccccc2)CC1)N/N=C/c1ccccc1O`, the Potency is reported as inconclusive: 3.55 µM [inhibitor, single point]. For `CC(C)(O)C1C2OC(=O)C1[C@]1(O)C[C@H]3O[C@]34C(=O)O[C@H]2[C@]14C` (stereo not given in full) (tested in a mixture with another compound), the activity change, negative = inhibition was inconclusive: -0.845% [inhibitor]. In the case of `CC(=O)OC[C@H]1O[C@H](C/C=N/OC[C@@H](C)[C@H](OCc2ccccc2)C(C)C)C=C[C@@H]1OC(C)=O`, the “activity change, negative = inhibition” value is reported as inactive: -9.87% [at 14.2 µM]. In the case of `Cc1ccc(OCc2nc(-c3ccc(C(=O)N4CCN(c5ccc(Cl)cc5)CC4)cc3)oc2C)cc1`, the “activity change, negative = inhibition” value is reported as inactive: -15.8% [at 46.1 µM]. In the case of `CCCCCNC(=O)Cn1c(=O)c2c(ncn2CC(C)C)n(Cc2ccccc2)c1=O`, the “activity change, negative = inhibition” value is reported as inactive: 5.06% [at 46.1 µM]. For `CCn1cc(C(=O)N[C@@H](C)C(=O)NCCCN2CCOCC2)c(=O)c2cc3c(cc21)OCO3`, the Potency was inconclusive: 12.6 µM [activator, single point]. With `COc1cccc(-c2c[nH]c(=O)[nH]c2=O)c1` the Potency was inconclusive: 0.562 µM [inhibitor, partial curve, poor fit]. In the case of `O=C(CCN1C(=O)C2C3CCC(C3)C2C1=O)Nc1ccc([N+](=O)[O-])cc1` (stereo not given), the “activity change, negative = inhibition” value is reported as inactive: 3.34% [at 46.1 µM]. With `COc1ccc(S(=O)(=O)N/N=C/c2ccc(OCCN3CCOCC3)c(OC)c2)cc1` the Potency was inconclusive: 20.6 µM [activator, single point]. With `CCc1c(N)nc(N)nc1Nc1ccc(C)c(C)c1` the Potency was inconclusive: 35.5 µM [inhibitor, partial curve, poor fit]. With `CCCCSc1nnc(-c2ccc(C)cc2)n1C` the “activity change, negative = inhibition” value was inactive: 24.7%. In the case of `CC1(C)CN2C(c3ccc(Cl)cc3)N2C1` (stereo not given), the “activity change, negative = inhibition” value is reported as inactive: 11.9%. For `CN1CCN(S(=O)(=O)c2ccc(Cl)cc2)CC1`, the “activity change, negative = inhibition” value was inactive: 10.7%. For `COc1ccc(C2NC(=O)NC(c3ccccc3)=C2c2nc3ccccc3s2)cc1` (stereo not given), the Potency was inconclusive: 23.1 µM [inhibitor, single point]. For `Cc1ccc(C)c(N2N=C(C(=O)Nc3nccs3)CCC2=O)c1`, the “activity change, negative = inhibition” value was inactive: -14.7% [at 46.1 µM]. In the case of `Cc1nc2ccc(S(=O)(=O)c3ccc4nc(C)[nH]c4c3)cc2[nH]1`, the “activity change, negative = inhibition” value is reported as inactive: -14.2%. For `CCN(CC)C(C(=O)NC1CCCCC1)c1ccc(C)cc1` (stereo not given), the “activity change, negative = inhibition” value was inactive: 6.32% [at 46.1 µM]. For `CCOc1ccc(N(CC(=O)NCCSc2ccccn2)S(C)(=O)=O)cc1`, the “activity change, negative = inhibition” value was inactive: 11.3%. In the case of `COC(=O)c1sccc1NC(=O)CSc1nnnn1-c1ccccc1C`, the Potency is reported as inconclusive: 6.51 µM [inhibitor, single point]. With `CCC(C)NC(=O)c1ccc2c(c1)S(=O)(=O)c1ccccc1C2=O` (stereo not given) the “activity change, negative = inhibition” value was inactive: -14.4%. In the case of `Nc1ncc(-c2ccccc2)c(-c2ccc(OCc3ccccc3)cc2O)n1`, the “activity change, negative = inhibition” value is reported as inactive: -29%. For `COC(=O)c1ccc(Cn2cc(/C=C\[N+](=O)[O-])c3ccccc32)o1`, the Potency was inconclusive: 11.2 µM [inhibitor, single point]. For `Cc1nc2ccsc2c(=O)n1-c1ccc(Cl)cc1`, the Potency was inconclusive: 3.55 µM [activator, single point]. In the case of `Cc1ccc(NC(=O)CSc2nnc(NC(=O)C3CC3)s2)cc1C`, the Potency is reported as inconclusive: 1.58 µM [activator, partial curve, poor fit]. For `CCN(CC)S(=O)(=O)c1ccc(NC(=O)CCc2c(C)nc3cc(-c4ccc(Cl)cc4)nn3c2C)cc1`, the Potency was inconclusive: 2.24 µM [inhibitor, single point]. In the case of `O=C(NC1CCCCC1)c1ccc(CS(=O)(=O)Cc2ccccc2F)o1`, the “activity change, negative = inhibition” value is reported as inactive: 16%. For `O=C(O)c1ccc(N=c2oc3cc(O)ccc3cc2C(=O)NCc2ccccc2)cc1`, the “activity change, negative = inhibition” value was inactive: -2.03%. For `Cc1cc(NC(=O)c2ccccc2Cl)no1`, the “activity change, negative = inhibition” value was inactive: 24%. For `COc1ccc(C(=O)Nc2nc(C)c(C)s2)cc1OC`, the Potency was inconclusive: 0.501 µM [activator, full curve, poor fit]. With `O=[N+]([O-])c1cc(C(F)(F)F)ccc1N1CCN(S(=O)(=O)c2ccc3c(c2)CCCC3)CC1` the Potency was inconclusive: 4.47 µM [inhibitor, full curve]. With `COc1ccc(-c2[nH]c3ccccc3c2SCCNC(=O)c2ccccc2)cc1` the Potency was inconclusive: 18.4 µM [inhibitor, single point]. With `COc1ccc(NC(=O)c2cccc(C#N)c2)cc1NS(=O)(=O)c1ccc(F)cc1` the Potency was inconclusive: 22.4 µM [inhibitor, single point]. In the case of `CC1CN(C(=O)Nc2cccc(C(F)(F)F)c2)CC(C)O1` (stereo not given), the Potency is reported as inconclusive: 5.62 µM [activator, partial curve, poor fit]. With `C#CCOCC#CC[C@@]1(C(=O)OC)C=C[C@@H](C)[C@H](c2ccccc2Br)N1C(=O)C(F)(F)F` the Potency was inconclusive: 0.531 µM [inhibitor, partial curve, poor fit]. For `O=C(NC(=S)Nc1cccc(CO)c1)c1ccc(-c2ccccc2)cc1`, the “activity change, negative = inhibition” value was inactive: 4.17%. With `COc1cc(CNc2ccc3[nH]c(=O)[nH]c3c2)ccc1OCc1ccccc1F` the Potency was “inactive and inconclusive: 11.2 µM [inhibitor, partial curve]”. With `CC1CCCN(C(=O)c2ccc3c(=O)n(C4CCCC4)c(=S)[nH]c3c2)C1` (stereo not given) the “activity change, negative = inhibition” value was inactive: -19.8% [at 46.1 µM]. In the case of `NC(=O)CSc1nc(-c2ccccc2Cl)ns1`, the Potency is reported as inconclusive: 0.164 µM [inhibitor, partial curve, poor fit]. In the case of `Cc1ccc(Cn2nnc3c(=O)[nH]c(C4CCCN(S(=O)(=O)c5ccc(F)cc5)C4)nc32)cc1` (stereo not given), the Potency is reported as inconclusive: 35.5 µM [inhibitor, single point]. With `COc1ccc([N+](=O)[O-])cc1NC(=O)c1ccccc1N(C)S(C)(=O)=O` the “activity change, negative = inhibition” value was inactive: 1.35% [at 46.1 µM]. For `O=C(CSc1ncnc2ccccc12)Nc1cccc(S(=O)(=O)N2CCCC2)c1`, the Potency was inconclusive: 0.562 µM [activator, partial curve, poor fit]. In the case of `CC(C)N(Cc1ccccc1)C(=O)CN1C(=O)COc2ccc(S(=O)(=O)NC3CCCC3)cc21`, the Potency is reported as inconclusive: 1.12 µM [inhibitor, full curve, poor fit]. With `CCOC(=O)CSc1nc2cc(S(=O)(=O)Nc3ccccc3OC)ccc2o1` the Potency was inconclusive: 0.164 µM [inhibitor, partial curve]. In the case of `Cc1ccc(S(=O)(=O)N2CCN(C(C)C(=O)Nc3ccccc3-c3ccccc3)CC2)cc1` (stereo not given), the Potency is reported as inconclusive: 10 µM [inhibitor, partial curve, poor fit].

From PubChem BioAssay AID540276 (National Center for Advancing Translational Sciences (NCATS), 2011)
% is scaled to controls: 0 for no effect and ±100 for the full control effect; potency is read from the fitted curve at half-maximal effect.
